Results are given in words; binding and its absence hold for the method and conditions named. Binding seen in cells or lysates may run through a third protein. These calls come from enrichment with a bait or labelling near it, and not all partners need be listed. A no says only that the protein was not detected with the bait.
B1: Tca17p, P32613 1-152 (protein)
chain: MSLRPCFVSLIDESDKPILIYVPNEAENEMNDVLKYNVLSNISLDYFESALVEWHSLDSKPLLKSIFQLEGVSVFAMLIKQTGLKIVIGFEQKSLSGADDEFEAINQIFETVRKIYIRVKCNPLLVSGDEKSIIKSLERKFDELFISTEVEL
B2: SEC27 (protein, UniProt P41811 1-889)
chain: MKLDIKKTFSNRSDRVKGIDFHPTEPWVLTTLYSGRVELWNYETQVEVRSIQVTETPVRAGKFIARKNWIIVGSDDFRIRVFNYNTGEKVVDFEAHPDYIRSIAVHPTKPYVLSGSDDLTVKLWNWENNWALEQTFEGHEHFVMCVAFNPKDPSTFASGCLDRTVKVWSLGQSTPNFTLTTGQERGVNYVDYYPLPDKPYMITASDDLTIKIWDYQTKSCVATLEGHMSNVSFAVFHPTLPIIISGSEDGTLKIWNSSTYKVEKTLNVGLERSWCIATHPTGRKNYIASGFDNGFTVLSLGNDEPTLSLDPVGKLVWSGGKNAAASDIFTAVIRGNEEVEQDEPLSLQTKELGSVDVFPQSLAHSPNGRFVTVVGDGEYVIYTALAWRNKAFGKCQDFVWGPDSNSYALIDETGQIKYYKNFKEVTSWSVPMHSAIDRLFSGALLGVKSDGFVYFFDWDNGTLVRRIDVNAKDVIWSDNGELVMIVNTNSNGDEASGYTLLFNKDAYLEAANNGNIDDSEGVDEAFDVLYELSESITSGKWVGDVFIFTTATNRLNYFVGGKTYNLAHYTKEMYLLGYLARDNKVYLADREVHVYGYEISLEVLEFQTLTLRGEIEEAIENVLPNVEGKDSLTKIARFLEGQEYYEEALNISPDQDQKFELALKVGQLTLARDLLTDESAEMKWRALGDASLQRFNFKLAVEAFTNAHDLESLFLLHSSFNNKEGLVTLAKDAERAGKFNLAFNAYWIAGDIQGAKDLLIKSQRFSEAAFLGSTYGLGDDAVNDIVTKWKENLILNGKNTVSERVCGAEGLPGSSSSGDAQPLIDLDSTPAPEQADENKEAEVEDSEFKESNSEAVEAEKKEEEAPQQQQSEQQPEQGEAVPEPVEEES
B3: SEC26 (protein, UniProt P41810 1-973)
chain: MTSLSSQPAYTLVFDPSPSMETYSSTDFQKALEKGSDEQKIDTMKSILVTMLEGNPMPELLMHIIRFVMPSKNKELKKLLYFYWEIVPKLAEDGKLRHEMILVCNAIQHDLQHPNEYIRGNTLRFLTKLREAELLEQMVPSVLACLEYRHAYVRKYAILAVFSIFKVSEHLLPDAKEIINSFIVAETDPICKRNAFIGLAELDRENALHYLENNIADIENLDPLLQAVFVQFIRQDANRTPALKAQYIELLMELLSTTTSDEVIFETALALTVLSANPNVLVPAVNKLIDLAVKVSDNNIKLIVLDRIQDINANNVGALEELTLDILRVLNAEDLDVRSKALDISMDLATSRNAEDVVQLLKKELQTTVNNPDQDKAMQYRQLLIKTIRTVAVNFVEMAASVVSLLLDFIGDLNSVAASGIIAFIKEVIEKYPQLRANILENMVQTLDKVRSAKAYRGALWIMGEYAEGESEIQHCWKHIRNSVGEVPILQSEIKKLTQNQEHTEENEVDATAKPTGPVILPDGTYATESAFDVKTSQKSVTDEERDSRPPIRRFVLSGDFYTAAILANTIIKLVLKFENVSKNKTVINALKAEALLILVSIVRVGQSSLVEKKIDEDSLERVMTSISILLDEVNPEEKKEEVKLLEVAFLDTTKSSFKRQIEIAKKNKHKRALKDSCKNIEPIDTPISFRQFAGVDSTNVQKDSIEEDLQLAMKGDAIHATSSSSISKLKKIVPLCGFSDPVYAEACITNNQFDVVLDVLLVNQTKETLKNLHVQFATLGDLKIIDTPQKTNVIPHGFHKFTVTVKVSSADTGVIFGNIIYDGAHGEDARYVILNDVHVDIMDYIKPATADDEHFRTMWNAFEWENKISVKSQLPTLHAYLRELVKGTNMGILTPSESLGEDDCRFLSCNLYAKSSFGEDALANLCIEKDSKTNDVIGYVRIRSKGQGLALSLGDRVALIAKKTNKLALTHV
B4: PSA1 (protein, UniProt P41940 1-361)
chain: MKGLILVGGYGTRLRPLTLTVPKPLVEFGNRPMILHQIEALANAGVTDIVLAVNYRPEVMVETLKKYEKEYGVNITFSVETEPLGTAGPLKLAEDVLKKDNSPFFVLNSDVICEYPFKELADFHKAHGGKGTIVATKVDEPSKYGVIVHDIATPNLIDRFVEKPKEFVGNRINAGLYILNPEVIDLIEMKPTSIEKETFPILVEEKQLYSFDLEGFWMDVGQPKDFLSGTVLYLNSLAKRQPKKLATGANIVGNALIDPTAKISSTAKIGPDVVIGPNVTIGDGVRITRSVVLCNSTIKNHSLVKSTIVGWNSTVGQWCRLEGVTVLGDDVEVKDEIYINGGKVLPHKSISDNVPKEAIIM
B5: RVS161 (protein, UniProt P25343 1-265)
chain: MSWEGFKKAINRAGHSVIIKNVDKTIDKEYDMEERRYKVLQRAGEALQKEAKGFLDSLRAVTASQTTIAEVISNLYDDSKYVAGGGYNVGNYYLQCVQDFDSETVKQLDGPLRETVLDPITKFSTYFKEIEEAIKKRDHKKQDFDAAKAKVRRLVDKPAKDASKLPRAEKELSLAKDIFENLNNQLKTELPQLVSLRVPYFDPSFEALIKIQLRFCTDGYTRLAQIQQYLDQQSRDDYANGLLDTKIEELLGQMTSLDICALGIK
B6: Trs85p (protein, UniProt P46944 1-698)
chain: MVFSYEHYMNLLFHLDNSKETVPPEIAKRIISNAIAPVITVTSTPLFDKHIQETYKVDSLYMLLRFFGGCVSDRDQANEAKVGQHEHEVCDASDSTDSIPKNKNLEVPNLSKKGSRSRSNSLFQRDSTQSQYIRFTRPLGDLIETRDANDMLFNYHSLEVFLDNYLKLVAANTDEMVPHNLLKKSIYHSFFSLAISSTNNLSPYETFNHPILSLIALDISNGEVYEDARDLLVNFKNLNHNTENFPIFMNTNEMLPVFLLCYNDDSQEEFEKCQALAKKLKKQLFVESILLALWKDSFIYDENSVIQLHQPVMSSLEEILFFLQAPTQTTLSLALINSIYDMLDYLVYDLMIPFMKRKVSFWEETILQPRKSLFNGAKFFKKFMNKNPVNGNHQHNSLTRDSQGNEYFASSSSEFLMRKLADWSMMLSDFKTAYSTYESLMDDLDAFPKYLASCIEWCAVSLLMGAQSIVTVKMIKNDINPLIERALATYENCSRIQRGKGKESNSLDVTEPVRSYETRCMILASELFLSLSNTWTSTPYAIQYLETILDECKLGPCSQIMVWERLSDCYNLRVDPRIKHRVGAMKKDAKDTEDLRGEHKYSTDHFTDEDILSEGLTRRRKAAFFRLIAAKKWAEQKQWRQVSWCLKDIESTYSEIKFLHGNGLILSKLKNQLNLKDVDSAPRPSEKNLTRTSVSFIG
B7: Ypt31p (protein, UniProt P38555 1-223)
chain: MSSEDYGYDYDLLFKIVLIGDSGVGKSNLLSRFTKNEFNMDSKSTIGVEFATRTLEIDGKRIKAQIWDTAGQERYRAITSAYYRGAVGALIVYDISKSSSYENCNHWLSELRENADDNVAVGLIGNKSDLAHLRAVPTEESKTFAQENQLLFTETSALNSENVDKAFEELINTIYQKVSKHQMDLGDSSANGNANGASAPNGPTISLTPTPNENKKANGNNCC
B8: Ypt32p, P51996 1-222 (protein)
chain: MSNEDYGYDYDYLFKIVLIGDSGVGKSNLLSRFTTDEFNIESKSTIGVEFATRTIEVENKKIKAQIWDTAGQERYRAITSAYYRGAVGALIVYDISKSSSYENCNHWLTELRENADDNVAVGLIGNKSDLAHLRAVPTDEAKNFAMENQMLFTETSALNSDNVDKAFRELIVAIFQMVSKHQVDLSGSGTNNMGSNGAPKGPTISLTPAPKEDKKKKSSNCC

How the values were obtained:
[1] = molecular target: T1, Trs120p-TAP (yeast (endogenous in the yeast strain)), Q04183; assay: affinity purification with mass spectrometry; Trs120p-TAP purified from yeast lysate (1% CHAPS, 100 mM NaCl) on IgG beads, TEV elution, calmodulin beads, EGTA elution; gel bands or total eluate analysed by MS/MS; conditions: remark: other sources report otherwise
T1 chain: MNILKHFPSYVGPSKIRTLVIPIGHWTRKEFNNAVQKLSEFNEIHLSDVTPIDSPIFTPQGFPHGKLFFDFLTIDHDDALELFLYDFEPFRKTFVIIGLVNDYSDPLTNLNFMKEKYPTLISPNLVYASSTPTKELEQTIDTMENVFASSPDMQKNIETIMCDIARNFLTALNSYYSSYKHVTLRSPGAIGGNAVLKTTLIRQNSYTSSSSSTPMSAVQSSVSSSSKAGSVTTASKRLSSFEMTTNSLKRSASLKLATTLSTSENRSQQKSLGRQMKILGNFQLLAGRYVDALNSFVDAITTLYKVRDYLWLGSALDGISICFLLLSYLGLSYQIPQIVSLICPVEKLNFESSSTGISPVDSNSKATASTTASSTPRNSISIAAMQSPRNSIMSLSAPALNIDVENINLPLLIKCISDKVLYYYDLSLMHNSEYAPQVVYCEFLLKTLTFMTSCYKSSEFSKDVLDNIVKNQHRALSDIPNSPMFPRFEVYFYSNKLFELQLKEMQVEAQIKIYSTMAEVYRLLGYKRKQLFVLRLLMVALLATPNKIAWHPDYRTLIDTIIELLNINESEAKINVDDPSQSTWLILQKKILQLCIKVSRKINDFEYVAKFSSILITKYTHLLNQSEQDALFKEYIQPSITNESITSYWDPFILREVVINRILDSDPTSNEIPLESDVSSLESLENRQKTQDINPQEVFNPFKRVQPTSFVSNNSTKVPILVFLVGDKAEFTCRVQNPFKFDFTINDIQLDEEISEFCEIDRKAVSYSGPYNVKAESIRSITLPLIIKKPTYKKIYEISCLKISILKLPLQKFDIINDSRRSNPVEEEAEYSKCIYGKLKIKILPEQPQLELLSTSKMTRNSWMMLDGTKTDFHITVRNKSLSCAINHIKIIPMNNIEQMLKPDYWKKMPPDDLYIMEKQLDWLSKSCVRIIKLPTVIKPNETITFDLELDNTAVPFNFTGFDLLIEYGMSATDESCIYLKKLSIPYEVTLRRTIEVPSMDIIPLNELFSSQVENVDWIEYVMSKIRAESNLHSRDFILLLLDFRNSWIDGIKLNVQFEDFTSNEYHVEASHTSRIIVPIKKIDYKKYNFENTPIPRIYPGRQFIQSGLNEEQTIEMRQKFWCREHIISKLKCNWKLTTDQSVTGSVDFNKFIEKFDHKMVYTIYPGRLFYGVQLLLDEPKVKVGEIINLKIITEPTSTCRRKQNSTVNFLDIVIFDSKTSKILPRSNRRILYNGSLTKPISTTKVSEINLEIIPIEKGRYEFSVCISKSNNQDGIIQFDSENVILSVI

[2] = molecular target: T2, Trs120p-TAP (yeast (endogenous in the yeast strain)) (UniProt Q04183); assay: as above
T2 sequence: T1 chain

Binder | binding [1] | binding [2]
B1 | binds | –
B2 | – | binds
B3 | – | binds
B4 | – | binds
B5 | – | binds
B6 | – | no binding
B7 | – | no binding
B8 | no binding | –

Reference: paper PMC4877375
